Experimental data: patent US20210038564A1, “METHODS FOR SCAR PREVENTION” (Northwestern University, priority 2009, published 2021)
“Also recorded” adds a separate entry of the source. At least one structure is not confirmed: it was looked up by name or label, or the drawing left a doubt.

Key:
[1] = test system: hypertrophic scar formation; experiment: Hypertrophic scar model in rabbit ear, 7-mm wounds, scar elevation index; type: in vivo, rabbit (New Zealand White); details: for hypertrophic scar formation: 40 μM per wound, local injection
Text: Using a well-established hypertrophic scar model in rabbit ear (Brown et al. (2008) Plast. Reconstr. Surg. 121:1165-1172; Kim et al. (2003) Wound Repair Regen. 11:368-372; Kryger et al. (2007) J Am. Coll. Surg. 205:78-88; Lu et al. (2005) J Am. Coll. Surg. 201:391-397; Morris et al. (2007) Plast. Reconstr. Surg. 100:674-681; Reid et al. (2006) Wound Repair Regen. 14:138-141; Reid et al. (2007) J Plast. Reconstr. Aesthet. Surg. 60:64-72; Saulis et al. (2002) Plast. Reconstr. Surg. 110:177-183; each herein incorporated by reference in its entirety), the effects of local administration of statins (e.g., Simvastatin, Lovastatin, Prevastatin) were investigated in experiments conducted during the course of developing some embodiments of the present technology. Multiple wounds of precise dimensions were made in rabbit ears, and statins were administered by injection within the wound site. The effectiveness of statin administration on inhibition of hypertrophic scar formation was assessed by histological determination of scar elevation index (FIG. 1). The scar elevation index is determined by the ratio of total wound area tissue height to the area of normal tissue below the hypertrophic scar. In this calculation, an SEI value of 1 is defined as a scar of equal height to the surrounding unwounded dermis, while an SEI value exceeding 1 is defined as a raised, hypertrophic scar. […]
Whereas the dosages in terms of μMol were equivalent for all 3 statins, the μg dosage levels for Lovastatin and Prevastatin were double those used for Simvastatin. Scar Elevation Index was determined for 28 rabbits, as indicated: […]

[2] = test system: connective tissue growth factor (CTGF); experiment: PCR of CTGF in rabbit ear wound tissue; type: in vivo; details: low-dose (40 μM) injections on days 18, 19, 20, harvest on day 21, FIG. 9
[3] = test system: CTGF; details: lung fibroblasts, Watts et al. 2005, 2006; cited from earlier work

SMILES | hypertrophic scar formation [1] | scar elevation index (SEI) ([1]; lowest level of drug administered (40 μM per wound), injections on days 15, 20, 25, harvest on day 35, versus vehicle) | CTGF mRNA expression [2] | CTGF gene and protein expression [3]
CC[C@H](C)C(=O)O[C@H]1C[C@H](O)C=C2C=C[C@H](C)[C@H](CC[C@@H](O)C[C@@H](O)CC(=O)O)[C@H]21 [Pravastatin] | inhibit hypertrophic scar formation | significantly lower SEI | – | –
CCC(C)(C)C(=O)O[C@H]1C[C@@H](C)C=C2C=C[C@H](C)[C@H](CC[C@@H]3C[C@@H](O)CC(=O)O3)[C@H]21 [Simvastatin] | inhibit hypertrophic scar formation | – | down-regulation of CTGF; also recorded: decrease in CTGF mRNA expression | inhibit both CTGF gene and protein expression
